Assay results: paper PMC9573856 (2022)
No constants are given. Whether binding was seen depends on the method and setting. Where a sequence is shown, tags or fusion partners need not be part of it.

Target: 3 × FLAG-aPKC (atypical protein kinase C subtype iota, PKCι), wild type, full length (human) (UniProt P41743)
Assay: SEC + other: glycerol gradient ultracentrifugation; molecular weight estimate from Stokes radius (SEC) and apparent sedimentation coefficient (glycerol gradient) by the Siegel-Monty/Erickson approximation; 20 mM HEPES pH 7.6, 400 mM NaCl; both purified

B1: 3 × FLAG-aPKC (atypical protein kinase C subtype iota, PKCι), wild type, full length (enzyme, UniProt P41743 1-596)
chain: MPTQRDSSTMSHTVAGGGSGDHSHQVRVKAYYRGDIMITHFEPSISFEGLCNEVRDMCSFDNEQLFTMKWIDEEGDPCTVSSQLELEEAFRLYELNKDSELLIHVFPCVPERPGMPCPGEDKSIYRRGARRWRKLYCANGHTFQAKRFNRRAHCAICTDRIWGLGRQGYKCINCKLLVHKKCHKLVTIECGRHSLPQEPVMPMDQSSMHSDHAQTVIPYNPSSHESLDQVGEEKEAMNTRESGKASSSLGLQDFDLLRVIGRGSYAKVLLVRLKKTDRIYAMKVVKKELVNDDEDIDWVQTEKHVFEQASNHPFLVGLHSCFQTESRLFFVIEYVNGGDLMFHMQRQRKLPEEHARFYSAEISLALNYLHERGIIYRDLKLDNVLLDSEGHIKLTDYGMCKEGLRPGDTTSTFCGTPNYIAPEILRGEDYGFSVDWWALGVLMFEMMAGRSPFDIVGSSDNPDQNTEDYLFQVILEKQIRIPRSLSVKAASVLKSFLNKDPKERLGCHPQTGFADIQGHPFFRNVDWDMMEQKQVVPPFKPNISGEFGLDNFDSQFTNEPVQLTPDDDDIVRKIDQSEFEGFEYINPLLMSAEECV
In the case of B1, the binding is reported as “no binding”.
